Results taken from the supplement of paper PMC3334620.
In all, about 33,000 sequences were measured (“E-score (-0.5 to 0.5)”: median about -0.015, highest 2% from about 0.3 on). The list shows a part of the results.

Molecular target: T1, Abf1 (UniProt P14164)
T1 sequence: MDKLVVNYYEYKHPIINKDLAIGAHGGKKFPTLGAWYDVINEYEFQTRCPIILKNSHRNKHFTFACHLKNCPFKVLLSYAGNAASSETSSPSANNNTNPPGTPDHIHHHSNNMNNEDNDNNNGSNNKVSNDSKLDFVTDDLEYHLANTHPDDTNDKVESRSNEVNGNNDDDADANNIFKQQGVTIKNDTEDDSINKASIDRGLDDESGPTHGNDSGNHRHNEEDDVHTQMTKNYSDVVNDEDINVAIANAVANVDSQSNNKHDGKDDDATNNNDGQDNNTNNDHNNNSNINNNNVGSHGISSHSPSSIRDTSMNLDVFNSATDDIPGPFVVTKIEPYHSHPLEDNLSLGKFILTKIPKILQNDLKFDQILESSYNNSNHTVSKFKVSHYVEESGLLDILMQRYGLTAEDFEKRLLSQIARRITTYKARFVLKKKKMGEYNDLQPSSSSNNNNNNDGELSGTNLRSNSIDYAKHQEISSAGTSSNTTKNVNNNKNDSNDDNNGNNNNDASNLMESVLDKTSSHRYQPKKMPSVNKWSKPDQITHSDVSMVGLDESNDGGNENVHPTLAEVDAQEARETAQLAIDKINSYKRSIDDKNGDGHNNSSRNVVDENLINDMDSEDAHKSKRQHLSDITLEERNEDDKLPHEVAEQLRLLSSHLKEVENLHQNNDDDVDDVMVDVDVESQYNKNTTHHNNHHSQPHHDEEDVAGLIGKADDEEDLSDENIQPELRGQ
Experiment: PBM E-score (8-mer binding enrichment) (E-score (-0.5 to 0.5)); higher = stronger / more preferred TF binding
Conditions: protein concentration: 200 nM; construct: GST-full length
Method in brief: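 Universal all-10-mer Agilent arrays, double-stranded by primer extension on fresh or once-stripped slides, were probed with about 100-200 nM GST-tagged yeast transcription factors made by PURExpress. Fluorescent anti-GST detected bound protein, and masliner normalised the scans. E-scores from the Universal PBM Analysis Suite were given to each ungapped eight-base word pooled with its reverse complement.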

Sequence	PBM E-score
ACACTTAC	0.0115
GCTCGAAC	0.0236
ACGCAATA	0.0632
GATGGTCC	-0.136
CCAGGACA	-0.139
TATGTTGA	-0.097
GACGTCCA	0.145
GCGAGGAA	-0.0784
GGCTCCAC	-0.27
ACTCACAC	0.0385
AACAGAGG	-0.13
GTCCAAAC	-0.0807
CGTACGTC	0.359
AAATAGAC	-0.0254
GTACCATA	0.0556
AGAGGTTG	-0.0169
CCGTCCGC	-0.147
GATGAGAA	0.155
AAGCAACA	-0.0411
CAGGGTGC	-0.376
ATAAAGCG	0.181
AGTTCGCG	-0.0641
GCAGGGAA	-0.0937
CTTGTAAA	-0.00179
CGCCAACA	-0.23

Sequence	PBM E-score
CTTCTACA	-0.117
GGGGAGGA	-0.263
AAAACCGT	0.0542
AATCGGAA	0.0767
AGCTTCCT	0.00875
ATGGTTGG	-0.169
AGTAATGG	-0.0441
GAACCTTA	0.00165
ATTTCGTG	0.288
AGGACCCG	-0.0411
CAGCCCTA	-0.154
AATATATA	0.0807
ATTTGTAA	0.204
TCGTCCCA	0.163
ATAGCCGA	0.0734
AACGCAGT	-0.188
CTAACAGC	-0.0486
GGGATCTA	-0.02
GGGTTCAC	0.00438
GAGTATCC	0.0845
ATGCTGTA	0.0278
CATAGACC	-0.17
CAGTAGTA	-0.0294
GAGTATCA	0.0372
TCGCATCA	0.192

Three consecutive records from above, quoted:
Sequence	PBM E-score
AGTTCGCG	-0.0641
GCAGGGAA	-0.0937
CTTGTAAA	-0.00179

The listing continues.

Sequence	PBM E-score
ATGATCAG	0.269
ACAATTCT	0.0167
CTCAGTGA	0.051
AAGTGCTC	-0.112
GCTGTAGA	-0.128
ACCACCAA	-0.234
ATGTGAAA	0.0939
CGAACCTA	-0.0863
ACTTGTTA	0.0808
ACCCGCAA	-0.277
CCATGCCC	-0.316
ATCTTCTC	0.0816
CTGCGCAG	-0.0277
CCTGGATC	-0.156
CTCACGCA	0.267
CTGGGCCA	-0.346
ATTATAAC	0.161
AGATCCGC	0.0185
CAGCACAG	0.00665
GTGTTAGA	0.118
GCGACTGA	-0.102
AGGAGTCG	-0.142
CAACGATA	0.25
ATGCCAAC	0.0313
AAATCTAG	0.045

Sequence	PBM E-score
CACAGCGG	-0.17
AATAGGGA	-0.114
GAACAATA	0.132
ATTAGTGC	0.148
TCAGGCGA	0.0781
GCTGGCAA	0.033
AAATTTGT	0.152
AGGAAGAT	-0.0381
GAGAAGAC	0.0656
CCGTCGCG	0.0721
CAGAAGAG	-0.0546
ATTCCGTG	0.23
ACTATCTA	0.116
CAGCCTCG	-0.0704
GAGCAAGA	-0.106
CCGAGAGG	-0.217
GTTCGGGA	-0.182
GGTGTTTA	-0.144
GTGAGATA	0.206
CCTGCCCG	-0.0943
AGAATGTG	0.0169
CGTACAAA	0.408
ATCCGAGC	-0.197
CCACGAAG	0.0703
CCGTGCCG	0.139

As entered above.
For PBM E-score, AATAGGGA reads -0.114
For PBM E-score, GATGGTCC reads -0.136
For PBM E-score, AGGAAGAT reads -0.0381
For PBM E-score, CCGTCCGC reads -0.147
For PBM E-score, GTACCATA reads 0.0556

(further entries)

Sequence	PBM E-score
CTTTACCA	-0.0514
AGACTAAA	-0.0426
CACGCCAG	-0.19
AGATTTAC	-0.00972
ACTGTCAT	0.0825
AAGCCGTC	0.122
GAACCTGC	0.0103
ATGGTACC	-0.205
AAGAACAA	0.159
AAACAGGC	0.0516
GGAGAGAA	0.0256
CACAACGG	0.172
CATGGCCG	-0.236
TGCACACA	0.0666
CTTCGATC	-0.00251
CCTTGAGC	-0.126
GATCCGTA	0.0294
ATGGAAGG	-0.246
ATCTACGC	0.0634
CAAGAATA	-0.00994
CATACTGC	-0.0482
CCCTACCG	-0.213
CAGGCGGG	-0.255
TAAAAGAA	0.126
TGGTAGAA	-0.0563

Sequence	PBM E-score
GTTCAAAC	0.184
ATGAAGAG	0.0548
AACAGTCA	-0.00394
ACAGTCAT	-0.0824
ACCGCTCC	-0.211
CGGTAACC	-0.221
AGTGGCAC	-0.109
AAGTGAGG	-0.0213
CTTCGAAA	0.0483
ATGACTCA	0.243
ATTGACGA	0.377
ATGCAAAC	-0.138
TTATGGAA	0.0336
GTCAGAGA	0.0184
CCCATAAA	-0.054
CAGCCTGA	-0.063
ACTTTTAC	0.249
ACTTAGAA	-0.121
GAGTCCCC	-0.331
ATCCAATC	0.171
ACAGGAGT	-0.0385
AGCACGGC	0.0922
TACGCTGA	0.126
AATGGTGA	0.0239
GCCATAGA	-0.126

Sequence	PBM E-score
AGAAATAA	0.132
AGACTTAA	0.116
CGGGCTGA	-0.063
AATCTTAA	0.0217
CGGCGAAA	0.0826
ATCCGGAG	-0.0495
CGCCTGTA	-0.234
AATAAATG	0.149
AAACAATG	0.0947
GTGGATGA	0.153
CCCACCGG	-0.202
ACATGCAT	-0.129
AGAAGTCG	0.0466
CATGTCTA	0.0035
GTGGGCTA	-0.107
TCCATCAA	0.117
GGAGGTGA	0.166
AAACCTTG	-0.24
ATAACTAA	0.129
CACGTCAG	0.0977
ATGTTTAC	-0.169
CGTAGGAG	0.134
ACTGGTCC	-0.211
GCGCAGAA	-0.029
AAGTATCT	0.0923

Sequence	PBM E-score
GGCTGCAC	-0.25
GGCATTAA	0.0614
AGTCAACC	-0.102
GATGCTTA	0.138
ACCCCCGC	-0.232
AGCAGGAT	0.0229
ATAATAAT	0.216
ACATTCGA	0.0247
CGCTCAAC	-0.06
GGGATATA	-0.045
AGCCGGGC	-0.291
GTTGGGAA	0.049
GAACAGAC	-0.0783
GAGCAGGC	-0.357
ATCATAAG	0.105
TAGGCCAA	-0.067
AGCCCCGA	-0.268
ATTCGATC	0.0347
GTGGGTAA	-0.158
GACAGGCA	-0.153
ACTGAAGT	-0.0998
GGTATAGA	-0.0536
AAAGTATT	0.154
CGGTGTAA	0.00282
CACGCGCC	0.0117

Sequence	PBM E-score
GAGTAAGA	-0.0101
GGACGGGA	-0.166
GCTTAACC	-0.182
AACCACTA	-0.138
AGTGCAGC	-0.188
ACGATCGA	0.292
GTTCCTGA	-0.148
AATATGAT	0.236
AGTGACGC	-0.0198
CGCTTTTA	0.0565
ATCACGGC	0.35
CTAGAGGC	-0.21
GTGCCGGA	0.046
CCGTCTCG	0.156
ACAAGTCA	0.0441
CTGTCGGA	-0.123
AACATGGG	-0.0427
GGCATAAC	0.109
AGATGCTA	0.032
